Source: publication PMC7077553
No constants are given. Whether binding was seen depends on the method and setting. In cells and extracts the contact can be indirect. Some entries that bind do so weakly or less than the wild type.

Tests used:
[1] = target: T1, Cyclin G2 (CCNG2) in HK-2 cells (not stated (in human HK-2 cells)) (UniProt Q16589); test: proximity ligation; Duolink in situ PLA in fixed, permeabilised HK-2 cells with primary antibodies against Dpr1, cyclin G2 or CK1; Dpr1-CK1 also in the context of cyclin G2 overexpression
T1 sequence: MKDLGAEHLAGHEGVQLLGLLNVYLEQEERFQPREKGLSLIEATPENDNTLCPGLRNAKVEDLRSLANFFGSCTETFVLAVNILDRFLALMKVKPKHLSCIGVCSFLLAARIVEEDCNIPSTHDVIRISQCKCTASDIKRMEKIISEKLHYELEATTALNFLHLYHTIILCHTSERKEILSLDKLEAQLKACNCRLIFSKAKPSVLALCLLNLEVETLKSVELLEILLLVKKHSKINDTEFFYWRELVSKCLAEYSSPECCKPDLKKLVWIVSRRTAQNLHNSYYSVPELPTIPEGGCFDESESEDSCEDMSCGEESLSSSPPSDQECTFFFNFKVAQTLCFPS

[2] = target: T1, Cyclin G2 (CCNG2) in HK-2 cells (not stated (in human HK-2 cells)); test: co-IP; coimmunoprecipitation in HK-2 cells; which protein was precipitated is not told

B1: Dapper1 (Dpr1/DACT1) in HK-2 cells (protein, UniProt Q9NYF0 1-836)
chain: MKPSPAGTAKELEPPAPARGEQRTAEPEGRWREKGEADTERQRTRERQEATLAGLAELEYLRQRQELLVRGALRGAGGAGAAAPRAGELLGEAAQRSRLEEKFLEENILLLRKQLNCLRRRDAGLLNQLQELDKQISDLRLDVEKTSEEHLETDSRPSSGFYELSDGASGSLSNSSNSVFSECLSSCHSSTCFCSPLEATLSLSDGCPKSADLIGLLEYKEGHCEDQASGAVCRSLSTPQFNSLDVIADVNPKYQCDLVSKNGNDVYRYPSPLHAVAVQSPMFLLCLTGNPLREEDRLGNHASDICGGSELDAVKTDSSLPSPSSLWSASHPSSSKKMDGYILSLVQKKTHPVRTNKPRTSVNADPTKGLLRNGSVCVRAPGGVSQGNSVNLKNSKQACLPSGGIPSLNNGTFSPPKQWSKESKAEQAESKRVPLPEGCPSGAASDLQSKHLPKTAKPASQEHARCSAIGTGESPKESAQLSGASPKESPSRGPAPPQENKVVQPLKKMSQKNSLQGVPPATPPLLSTAFPVEERPALDFKSEGSSQSLEEAHLVKAQFIPGQQPSVRLHRGHRNMGVVKNSSLKHRGPALQGLENGLPTVREKTRAGSKKCRFPDDLDTNKKLKKASSKGRKSGGGPEAGVPGRPAGGGHRAGSRAHGHGREAVVAKPKHKRTDYRRWKSSAEISYEEALRRARRGRRENVGLYPAPVPLPYASPYAYVASDSEYSAECESLFHSTVVDTSEDEQSNYTTNCFGDSESSVSEGEFVGESTTTSDSEESGGLIWSQFVQTLPIQTVTAPDLHNHPAKTFVKIKASHNLKKKILRFRSGSLKLMTTV
What does the source list for B1?
binding [1]: binds; binding [2]: binds
